Library screening results

Protein sequences, listed by entry. Tags and fused reporters are not part of them.
UniProt E9BF75, entry or part of it: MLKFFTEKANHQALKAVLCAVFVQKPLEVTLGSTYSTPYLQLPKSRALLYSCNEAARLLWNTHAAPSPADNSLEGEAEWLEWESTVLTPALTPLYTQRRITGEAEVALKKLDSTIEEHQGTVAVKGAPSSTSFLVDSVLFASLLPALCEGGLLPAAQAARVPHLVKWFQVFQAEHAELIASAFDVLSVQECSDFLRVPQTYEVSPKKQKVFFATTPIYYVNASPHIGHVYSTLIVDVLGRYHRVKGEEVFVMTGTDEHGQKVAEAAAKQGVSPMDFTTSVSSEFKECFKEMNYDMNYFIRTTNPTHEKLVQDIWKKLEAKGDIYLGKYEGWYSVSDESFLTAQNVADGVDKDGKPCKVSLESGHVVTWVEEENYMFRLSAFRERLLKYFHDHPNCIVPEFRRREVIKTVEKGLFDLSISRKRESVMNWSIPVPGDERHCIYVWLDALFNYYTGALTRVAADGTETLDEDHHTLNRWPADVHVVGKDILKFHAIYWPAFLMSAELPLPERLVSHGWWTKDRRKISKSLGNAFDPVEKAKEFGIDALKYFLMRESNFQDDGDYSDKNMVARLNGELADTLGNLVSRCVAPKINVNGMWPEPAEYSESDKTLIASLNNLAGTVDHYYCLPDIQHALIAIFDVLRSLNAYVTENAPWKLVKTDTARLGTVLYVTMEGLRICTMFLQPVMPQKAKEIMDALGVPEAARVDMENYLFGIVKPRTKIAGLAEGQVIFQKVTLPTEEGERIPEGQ

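Primary screen of methionyl-tRNA synthetase; the read-out is not stated. Target: Methionyl-tRNA synthetase (putative), Leishmania donovani (UniProt E9BF75). The test concentration is not given. Values are per cent inhibition. Of about 68,000 compounds tested this way, about 24 (0.035%) reached 50% or more in at least one test.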

All values are in %.
The controls that fix the scale are not given in the record; negative values are as filed.
The compounds are a random part of those screened.

compound | inhibition
CN(C)CCOCC1CN(C(=O)c2cccn2C)Cc2ccnn2C1 (configuration not stated) | 0
NCC1CN(Cc2cn(CCC(N)=O)c3ccccc23)CCO1 (configuration not stated) | 5.923
Cc1nsc(N2CCCN(C(=O)c3ccc4[nH]ccc4c3)CC2)n1 | 8.108
CCNc1cc2c(nn1)CCN(C(=O)c1cc(C)n(C3CC3)c1C)C2 | 16.33
O=C(Nc1cccn(CC(F)(F)F)c1=O)c1ccncc1F | 15.25
O=S(=O)(c1ccccc1)N1C[C@@H]2COC[C@]2(CN2CCOCC2)C1 | 2.094
Cn1c2ccc(F)cc2c2ncn(CCN3CCOCC3)c(=O)c21 | -0.813
COCc1nc(N2CC[C@H](N(C)C)C2)c2cnn(C)c2n1 | 14.52
O=C(NCC1(O)CCOc2ccccc21)Nc1ccc2c(c1)OCO2 (configuration not stated) | 11.8
Cc1ccc2nc(CNCCCN3CCCC3)cc(O)c2c1 | 16.19
Cn1cc(CN2CC[C@@H]3[C@@H](CCC(=O)N3CCc3c[nH]cn3)C2)cn1 | 13.5
Cc1cccc(C(=O)N2C[C@@H]3[C@H](CC(=O)N4CCCC4)[C@@H]3C2)n1 | 9.444
CCCS(=O)(=O)N1CCN(c2cc(-n3ccnc3)nc(C)n2)CC1 | 15.6
CC(=O)N1[C@H](CN(C)C)C[C@@H]2CN(C(=O)c3occc3C)CC[C@@H]21 | 16.25
CNC(=O)Cn1cc(C#N)c(=O)c2cc(Br)ccc21 | 17.56
CCN(Cc1ccoc1)C(C(N)=O)c1ccc(Br)cc1 (configuration not stated) | 12.5
Cc1cnn(CCNCC(=O)NCC2(c3ccccc3)CCC2)c1 | 3.472
CCC(O)CN1CCN(C(=O)c2ccc(Cn3cccc3)cc2)CC1 (configuration not stated) | 16.52
CCN(C(=O)C1Cc2cc(Cl)ccc2O1)C1CC1 (configuration not stated) | 4.077
CCOc1ccc(CN[C@@H]2COC[C@H]2c2ccc(F)cc2)cc1 | -0.5319
O=C1CSC(c2ccc(O)c(Cl)c2)c2c(n(C3CCOCC3)[nH]c2=O)N1 (configuration not stated) | 12.03
CC(C)(O)CCc1ccc(C(=O)N2CCN(CC3CCCC3)CC2)cc1 | 8.163
COc1ccc(OC)c(-n2nnnc2SCC2CCCCO2)c1 (configuration not stated) | 13.4
O=C(c1cscn1)N1CCc2ncc(Cn3cncn3)n2CC1 | 7.463
CCn1c(C)cc(C(=O)N2CCCC(c3nc(C)no3)C2)c1C (configuration not stated) | 4.167
O=C(NCCN1CCOCC1)c1cc2c(s1)CCN2Cc1cccnc1 | 12.8
O=C(c1cnc(-c2ccccc2)s1)N1CCOC2(CCCC2)C1 | 11.23
COCCN1C(=O)CO[C@H]2CN(Cc3ccccc3Cl)C[C@@H]21 | 14.69
CC(NC(=O)N(C)Cc1ccc2c(c1)OCO2)c1nncn1C (configuration not stated) | 12.36
CSc1nccc(N2CCC(NCCN3CCOCC3)CC2)n1 | 13.31
Cc1ccccc1C1CCN(CCn2cc(-c3nccs3)nn2)C1 (configuration not stated) | 1.064
Cc1csc(C2CCCN(C(=O)Cn3ccccc3=O)C2)n1 (configuration not stated) | 18.99
Cc1n[nH]c(SCC(=O)N2C[C@H]3CC[C@@H]2CN(c2ncccn2)C3)n1 | 14.53
CCOc1ccccc1N1CCN(C(=O)NCc2cc[nH]n2)CC1 | 2.514
COCCOCc1cccc(NC(=O)N2CCCC2c2ccncc2)c1 (configuration not stated) | 18.06
COc1cc(-c2n[nH]c(CN)n2)cc(OC)c1OC | 9.677
Cc1cc(C(=O)N2CCc3[nH]nc(-c4ccc5c(c4)OCO5)c3C2)no1 | 4.467
Cc1cccc(CN2C[C@@H]3CN(C(=O)C4CC=CC4)C[C@@H]3C2=O)n1 | 10.08
Nc1cccnc1N1CCN(c2ccccc2)CC1 | 9.704
CC(=O)N1CCCC(C(=O)N2Cc3nc(C)n(C)c(=O)c3C2)C1 (configuration not stated) | 7.711
Cc1ccc(N2CC3(COCCN(Cc4cccnc4)C3)OCC2=O)s1 (configuration not stated) | 4.902
Cc1cnc(NC(=O)c2cccc(CN(C)Cc3ncccc3C)c2)s1 | 0.7732
Cc1nc2c(c(N3CCN(Cc4ccco4)CC3)n1)CCNCC2 | 5.376
CN(C)C(C)(C)CNCc1cn(C)nc1-c1cccnc1 | -3.064
O=C(NCc1ccccc1Cn1cncn1)C1CCCC1 | 21.71
CC(C)n1cnnc1SCCN(C)c1ccccc1 | 8.123
CCc1ccccc1N1CC(c2nnc(N)s2)CC1=O (configuration not stated) | 15.01
N[C@H]1CN(C(=O)CCC(F)(F)F)C[C@@H]1c1ccccc1 | 7.013
CCc1ncc(CN2CCC3(CCCN(CC4CCC4)C3)C2)cn1 (configuration not stated) | 18.32
COCC1CN(C(=O)N2CCCC2)Cc2cnn(CC3CCCC3)c21 (configuration not stated) | 16.31
CS(=O)(=O)c1cccc(C(=O)NCC2Cc3ccccc3O2)c1 (configuration not stated) | 13.71
Cc1ccc(N2CCN(C(=O)C(O)c3cccc(Cl)c3)CC2=O)cc1 (configuration not stated) | 0
COCC(=O)N1CCC2(CC1)CC(OC)CO2 (configuration not stated) | 16.67
O=C(CN1CCSCC1c1ccccc1)N1CCCC1 (configuration not stated) | 7.521
c1coc(-c2nc(CN3CCn4c(nnc4C4CC4)C3)cs2)c1 | 10.44
CC(C)(NCCCOc1ccc(C#N)cc1)c1nccs1 | 7.627
COc1ccccc1N1CCC(CNS(=O)(=O)c2cccc(C#N)c2)C1 (configuration not stated) | 6.667
Nc1nccnc1C(=O)N(Cc1ccccc1O)CC1CCCO1 (configuration not stated) | 11.59
Cc1nn(C)cc1Cn1c(=O)ccc2ccccc21 | 10.7
Cc1ccn(CCC(=O)NCc2ccc(C)o2)n1 | 10.82

Source: ChEMBL document CHEMBL3988442, “University of Dundee, Small-Polar-MMV Screening Library” (2021).